Experimental data from patent US20040254238A1, “Bone growth stimulation with NO/statin and other NO modulating combinations” (OSTEOSCREEN, priority 2003, published 2004).
For at least one compound, name, drawing or mass did not settle the structure.

System: neonatal murine calvaria
Settings: simvastatin alone, at the doses indicated (FIG. 3 left panel)

CCC(C)(C)C(=O)O[C@H]1C[C@@H](C)C=C2C=C[C@H](C)[C@H](CC[C@@H]3C[C@@H](O)CC(=O)O3)[C@H]21 [simvastatin]
bone formation: induces bone formation in a dose dependent manner
